# Laboratory results as given in patent publication US8735129B2, “Ginsenoside glycosidase derived from the genus Terrabacter, and use thereof” (Korea Research Institute of Bioscience and Biotechnology, priority 2009, dated 2014).
# Format: biochemical
# Settings: sodium phosphate buffer
# Procedure: The thermo-dependence of the activity was assayed in 50 mM potassium phosphate buffer at various temperatures ranging from 4 to 90° C. Thermostability was tested by incubating aliquots of the enzyme in 50 mM potassium phosphate buffer for 30 minutes at different temperatures. After cooling the sample on ice for 10 minutes, residual activity was determined by a standard analysis;
# The pH effect on the enzymatic activity was measured using 2.0 mM pNPGlc in the following buffer (50 mM):
# Buffer: pH range of 2 to 10: KCl—HCl (pH 2), glycine-HCl (pH 3), sodium acetic acid (pH 4 and 5), sodium phosphate (pH 6 and 7), Tris-HCl (pH 8 and 9) and glycine-sodium hydroxide (pH 10).
# The enzyme was incubated in each of the above mentioned buffers at 4° C. for 24 hours, and then pHPGlc was analyzed in 50 mM potassium buffer to measure the enzymatic stability according to pH change. The activity was measured by the above mentioned method.
# The results were represented as an activity probability obtained at the optimum pH.
# The temperature-dependent activity in the 50 mM potassium phosphate buffer was analyzed within the temperature range of 4-90° C. using 2.0 mM pNPGlc at the optimum pH for 5 minutes. […] The sample was cooled in ice for 10 minutes, and the residual activity was measured by pNPGlc analysis.
molecule,measurement,value
"Bgl-gyp17: recombinant ginsenoside glycosidase from Terrabacter Gsoil 3082, SEQ ID NO. 1, 589 residues (protein, listed as Terrebacter sp., PEPTIDE (1)..(589) amino acid sequence of Bgl-gyp17, 1, 589 residues) MDPYEDPRLPVEVRVEDLLGRLSLEEKVGLMFQTVIEAGSDGTVLEHPGSISKSPTSTVVLDKHLTHFNVHALDDPRMAARWSNALQALAERTPHGIPVTVSTDPRHAFIENVGVSFSAGAFSQWPEPLGLAALRDADAVRRFADIARQEYVAVGIRAALHPTLDLATEPRWARQAGTFGQDPDLVTELGVAYLKGFQGDSLGSGSVACTSKHFPGGGPQKDGEDAHFPYGREQVYPGGRFADHLKPFPPIIEAGTAGIMPYYGMPVDLVVDGVEIEPIGFGYNKQVVTGLLREKLGYDGVVVTDWELVNDNHVGDQVLPARAWGVEHLDPHGRMELILEAGADQFGGEECVEILLDLVAQGRVTEARVDESARRILAVKFRLGLFENPYVDEDEAAATVGRDDFREEGYAAQARSVTVLHHEGGRLPLEHGLRIYAEQVSPEAVARHGKLVDRPEDADVAVVRLTAPFDPRSDLFLESWFHQGSLDFPPGLVARLERIAAVCPLVVDVVLDRPAVLTPLLRFASAVVGSFGSCDDALLDALTGTIAPVGRLPFDLPRSMDQVRAHGEDVPGYDDPLFPFGHGLRLDTE",pH of maximum activity,7.0
